The values are deposited in ChEMBL (CHEMBL3988442, “University of Dundee, Small-Polar-MMV Screening Library” (2021)).

T. brucei: 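Whole-parasite assay of Trypanosoma brucei over 72 hours; the read-out is not stated. Compounds at 30 µM. Higher reads as stronger inhibition (inferred: compounds with an IC50 in retests scored well above the rest). Values scatter widely below zero; nearly all retest evidence comes from the higher of the two concentrations used. Of about 64,000 compounds tested this way, about 940 (1.5%) reached 50% or more in at least one test.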
Toxoplasma: 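Assay of Toxoplasma gondii numbers, read through their beta-galactosidase reporter with a colour substrate. Concentration: 10 µM. Higher reads as fewer parasites (inferred from which compounds were picked for retests). Size under these conditions: about 67,000 compounds, about 260 of them at 50% or above in at least one test.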

Each number is a percent effect as filed.
The record does not define 0% and 100%; most values in the screen are far below 50% and negative numbers occur (in some assays of this library far below -100).
This is an unselected part of the compounds tested.
A dash means the value is not listed here; it may have been measured.

| SMILES | T. brucei | Toxoplasma |
|---|---|---|
| `O=C(CCN1CCCN(c2nccs2)CC1)NCC1CCCCC1` | 35.35% | 4.692% |
| `O=C(O)C(F)(F)F.c1cnc(N2CCOCC3(CCCN(Cc4cc[nH]n4)C3)C2)nc1` (stereo not drawn) | - | -79.66% |
| `O=C(NCCSc1ccccc1)[C@H]1CNC[C@H](C(=O)N2CCOCC2)C1` | 23.62% | -42.26% |
| `CC(C)COC(C)C(=O)N1CCN(S(C)(=O)=O)CC1` (stereo not drawn) | -87.61% | 0.5473% |
| `CS(=O)(=O)N1CC(c2ccnc(Nc3ccccn3)n2)C1` | -19.78% | 9.285% |
| `O=C(O)C(F)(F)F.O=C(O)C(F)(F)F.[H][C@@]12CCN(Cc3ccccn3)[C@]1([H])CC[C@@H](c1nnc(C)o1)O2` | -76.15% | -4.153% |
| `COc1ccc(CC(=O)N2CCCCC2Cn2cccn2)cc1` (stereo not drawn) | - | -2.61% |
| `O=C(NCCCc1nnc2ccccn12)c1ccccc1C1CCNC1` (stereo not drawn) | -44.93% | -38.44% |
| `CC(C)c1nnc2n1CCN(C(=O)c1ccc(Cn3cccc3)cc1)C2` | 17.56% | 0.579% |
| `O=C1NCc2ccccc2CC12CCN(Cc1ccccc1Cl)CC2` | - | 3.753% |
| `O=C(Cn1ccc2c(Cl)cccc21)N1CCC2(CC1)OCCO2` | -1.457% | 3.983% |
| `COc1ccc(Br)c(C(=O)NCC2CCN(S(=O)(=O)C3CC3)CC2)c1` | -1.33% | 4.05% |
| `[H][C@]12CCC[C@@]1(COCc1ccncc1)CN(C1CCOCC1)C2` | 7.686% | -28.98% |
| `CSc1ccc(CN2CCn3nc(CNC(C)=O)cc3C2)cc1` | -22.48% | -12.11% |
| `CCN1c2ccc(-c3cncn3CC(=O)NC(C)(C)C)cc2CC1C.Cl` (stereo not drawn) | -2.037% | 2.992% |
| `Cc1cnc(NC(=O)c2cccc(CN(C)Cc3snnc3C)c2)s1` | 4.368% | 2.022% |
| `Cc1ccc(-n2ncc(C(=O)N(C)C3CCN(C)CC3)c2N)cc1C` | -31.72% | 8.094% |
| `CC(C)Cc1cc(C(=O)NCC2CCN(c3ccccc3F)C2)on1` (stereo not drawn) | -109.4% | 2.488% |
| `Cc1noc(C)c1CN1CC[C@@H](OCC2CC2)[C@@H](Cc2ccccc2)C1.O=C(O)C(F)(F)F` | 12.8% | -1.83% |
| `CNc1nc(CNC(=O)Nc2ccc(SC)c(F)c2)cs1` | - | 22.73% |
| `CSCC(=O)N(Cc1ccccn1)Cc1ccccc1C` | 23.98% | 0.1827% |
| `Cc1cc(C(=O)N2CCN(C)CC2)nn1CC(=O)NCc1cccs1.Cl` | 4.887% | 10.14% |
| `CN(C(=O)c1cccc(C(=O)NS(C)(=O)=O)c1)c1ccccc1` | -0.726% | 22.84% |
| `Cc1ccc(-c2noc(Cn3nc(C(N)=O)ccc3=O)n2)cc1` | -29.88% | 1.863% |
| `Cc1cc(C)n(C2CCCN(C(=O)CCCc3ccccn3)C2)n1` (stereo not drawn) | 3.259% | 0.443% |
| `Cc1ccccc1CN1CCCN(C(=O)c2ccn(C)c(=O)c2)CC1` | 5.896% | 0.6048% |
| `Cc1sc2nc(C(F)(F)F)nc(N3CCN(S(C)(=O)=O)CC3)c2c1C` | -12.08% | -4.132% |
| `Cc1ccc(CC(=O)N2CCc3nnc(N(C)C)cc3C2)cn1` | 21.31% | 2.331% |
| `CC(=O)N1Cc2nccn2CC(CNC(=O)c2cccnc2)C1.O=C(O)C(F)(F)F` (stereo not drawn) | -75.33% | 0.9043% |
| `COc1cccc(CN2CCN(C(=O)CN3CCOCC3)CC2)n1` | 11.28% | -3.076% |

The last 2 entries again:

| SMILES | T. brucei | Toxoplasma |
|---|---|---|
| `CC(=O)N1Cc2nccn2CC(CNC(=O)c2cccnc2)C1.O=C(O)C(F)(F)F` (stereo not drawn) | -75.33% | 0.9043% |
| `COc1cccc(CN2CCN(C(=O)CN3CCOCC3)CC2)n1` | 11.28% | -3.076% |